Data on 18 molecules can be found in paper PMC12670160, “A drug-repurposing screen of FDA- and EMA-approved drugs identifies two NF-κB inhibitors active against eumycetoma” (Journal of Antimicrobial Chemotherapy, 2025).

Structures can show the parent of a compound that is named as a salt. Out of some 5,300 compounds screened, about 130 (2.5%) showed an effect of 50% or more. The list shows a part of the results.

The subject of the assay is M. mycetomatis strain mm55. The conditions noted are these: primary screen, metabolic activity vs growth control; 96 h, 2 µM; inhibitor.
For the molecule `CCCn1cnc2c1c(=O)n(CCCCC(C)=O)c(=O)n2C` [ONC0001954, propentofylline], the “% viability” value turned out to be 88.77%.
Turning to `CC(C)NCC(O)c1cc(O)cc(O)c1` (stereo not drawn) [ONC0000486, metaproterenol], the “% viability” value is given as 64.38%.
For the molecule `CN1CCc2cc3c(cc2C1O)OCO3` (stereo not drawn) [ONC0003326, hydrastinine hydrochloride], the “% viability” value worked out at 65.88%.
`CCCCCCCCCCCCCCCCCCCCCC(=O)Nc1ccn([C@@H]2O[C@H](CO)[C@@H](O)[C@@H]2O)c(=O)n1` [ONC0003930, enocitabine]: the “% viability” value is on record as 67.51%.
In the case of `COCC(=O)O[C@]1(CCN(C)CCCc2nc3ccccc3[nH]2)CCc2cc(F)ccc2[C@@H]1C(C)C` [ONC0004474, mibefradil] it was 133.5%; in that of `O=C(O)CCCCC1CCSS1` (stereo not drawn) [ONC0002415, thioctic acid], 97.93%.
Turning to `CCN(CC)Cc1cc(Nc2ccnc3cc(Cl)ccc23)ccc1O` [ONC0003211, amodiaquine dihydrochloride], the “% viability” value amounted to 130.2%.
In the case of `CCN(CC)S(=O)(=O)c1ccc(C(=O)O)cc1` [ONC0004305, etebenecid], the “% viability” value is given as 97.53%.
In the case of `Cc1cc(C)nc(SCC(=O)Nc2ncc(Cc3cccc4ccccc34)s2)n1` [ONC0002711, sirreal2] it was 67.76%; in that of `CCc1c(C(=O)C(N)=O)c2c(OCC(=O)O)cccc2n1Cc1ccccc1` [ONC0004708, varespladib ly315920], 129.5%; in that of `Oc1cc2c(c(Cl)c1O)CCNCC2c1ccccc1` (stereo not drawn) [ONC0001533, skf81297], 94.78%.
In the case of `CCC(=O)OCC(=O)[C@@]1(OC(=O)CC)[C@@H](C)C[C@H]2[C@@H]3CCC4=CC(=O)C=C[C@]4(C)[C@@]3(Cl)[C@@H](O)C[C@@]21C` [ONC0003210, beclomethasone dipropionate] it was 77.88%; in that of `CN(C)c1ccccc1CN1CCCN(Cc2ccccc2N(C)C)C1c1ccncc1` [ONC0001644, gant61], 87.94%.
In the case of `O=c1c2ccccc2nc2n1CCc1c-2[nH]c2ccccc12` [ONC0004955, rutaecarpine rutecarpine] it was 80.68%.
For the molecule `COc1ccc2[nH]c(C(=O)c3ccccc3)cc2c1` [ONC0001898, d64131], the “% viability” value was 78.99%.
As for `O=C(/C=C/C=C/c1ccc2c(c1)OCO2)N1CCCCC1` [ONC0003227, piperine], the “% viability” value was determined as 80.79%.
Take `CCNCC(O)c1cccc(O)c1` (stereo not drawn) [ONC0003685]: the “% viability” value came to 42.26%.
Consider `CN(C)CCCn1cc(C2=C(c3c[nH]c4ccccc34)C(=O)NC2=O)c2ccccc21` [ONC0000937, gf109203x], for which the “% viability” value is listed as 73.54%.
